Values quoted from earlier work as cited in US7767196B2, “Optimized relaxivity and specificity hepatobiliary MRI contrast agent” (priority 2005, dated 2010).
For at least one compound, name, drawing or mass did not settle the structure.

Settings: cited from earlier work

SMILES: CNC[C@H](O)[C@@H](O)[C@H](O)[C@H](O)CO.CNC[C@H](O)[C@@H](O)[C@H](O)[C@H](O)CO.O=C([O-])CN(CCN(CC(=O)[O-])CC(=O)O)CCN(CC(=O)O)C(COCc1ccccc1)C(=O)[O-].[Gd+3] (stereo not shown) [Gd-BOPTA, gadobenate dimeglumine]
- Hydration Number (q): 1
